Experimental data: PubChem BioAssay AID1259424 (University of Nebraska Medical Center, 2018)

Assay: 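Find knockdowns that reproduce the expression shifts seen after KSR1 loss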 (primary screen)
Cell system: human HCT116 colon cancer cells
Reagents: siRNA pool against human genes, 50 nM
Measurement: 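Six signature mRNAs by branched-DNA multiplex assay, scaled to two housekeeping genes and non-targeting median, log2; matched to mean KSR1 knockdown profile by Pearson correlation and euclidean distance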
Direction: mean correlation with KSR1 profile: higher = expression change more like KSR1 knockdown
Shown is an unselected part of about 14,000 reagents tested. 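Higher correlation or smaller distance means closer resemblance to KSR1 loss; control wells, including KSR1 knockdowns, recur on many plates.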 A reagent listed more than once was tested more than once; the source does not tell the runs apart. Further read-outs or replicates are left out here. Reagent sequences are not shown. Not stated in the record: the time to read-out.

target	mean correlation with KSR1 profile
PAQR3	0.489
ALB	0.092
UXT	0.0698
SYNPO2L	0.525
RFPL3	0.113
EFEMP1	0.0216
DMRT1	-0.289
LGR6	-0.159
DNAJC10	-0.532
INPP5J	-0.226
MIOS	-0.278
KLF14	0.0428
ARRDC3	-0.286
FBXW7	0.113
CNTN6	-0.144
ACTR5	0.7
VPS39	0.0771
PARD3	0.48
CAPN2	-0.274
POLD3	-0.76
PRUNE1	-0.335
FHIT	0.108
GYG2	-0.411
ACAA1	-0.377
MRPL48	-0.539
FBRS	-0.74
KRT7	-0.596
SLC13A2	-0.326
ORC5	0.24
SLC26A4	-0.074

The list goes on (4 carried over from the part before).
target	mean correlation with KSR1 profile
KRT7	-0.596
SLC13A2	-0.326
ORC5	0.24
SLC26A4	-0.074
NDUFAF1	-0.746
PAK1	0.353
TSN	0.751
ROGDI	-0.0591
NINL	0.163
CORT	-0.059
CORT	-0.0907
PIN1P1	0.313
RAB13	-0.43
TMEM59	-0.386
LAMP3	-0.209
SIRPD	0.173
MEAF6	-0.4
CAB39	-0.385
ZNF492	-0.29
RRP1B	-0.0631
PGD	-0.0963
UGT2B10	-0.0421
SORL1	-0.207
GABRE	0.246
VEZT	-0.504
LANCL2	0.312
TNFAIP3	-0.32
PEX12	-0.0493
SSX1	0.261
B3GALT5	0.464
EIF1	-0.345
SLC19A3	0.141
SEMA4D	-0.862
NOL10	0.327
SLC66A2	0.759
TAOK1	-0.175
ABCB8	-0.384
